Our source for the binding values is article PMC6464244, “The fungal ribonuclease-like effector protein CSEP0064/BEC1054 represses plant immunity and interferes with degradation of host ribosomal RNA”.

By UniProt entry, the sequences of proteins in these tests, tags left out. Where a name states a change or a piece, a line headed by the entry shows the natural chain unless it says otherwise.
UniProt A0A0U2LC24: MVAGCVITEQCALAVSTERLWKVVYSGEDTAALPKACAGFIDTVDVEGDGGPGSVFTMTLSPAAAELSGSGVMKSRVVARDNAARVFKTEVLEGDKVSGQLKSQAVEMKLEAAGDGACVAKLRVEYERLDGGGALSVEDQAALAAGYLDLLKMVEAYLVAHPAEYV

No constants are given. Whether binding was seen depends on the method and setting. Binding seen in cells or lysates may run through a third protein. For some assays here: Binding can be weak; no strength is given.

The target in one assay is T1, CSEP0064/BEC1054 (Blumeria graminis f.sp. hordei) (UniProt N1JJ94).
T1 sequence: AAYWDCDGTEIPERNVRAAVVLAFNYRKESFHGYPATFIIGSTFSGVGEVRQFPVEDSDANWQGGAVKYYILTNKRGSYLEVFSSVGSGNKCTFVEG
The experiment in a line: split reporter; BiFC in single barley leaf epidermal cells after particle bombardment; CSEP baits N-terminally tagged with the C-terminal half of mYFP, barley preys C-terminally tagged with the N-terminal half of mYFP, DsRED as transformation marker; imaged three days after bombardment; 9-45 cells per combination scored in four categories of YFP fluorescence.
On to “Pathogenesis-Related protein 10 (PR10) (from UniProt A0A0U2LC24)”, for which the binding result was “binds”.

A further assay deals with T1, CSEP0064/BEC1054 (Blumeria graminis f.sp. hordei). Briefly: split reporter.
With “Glutathione-S-Transferase (GST) (barley (Hordeum vulgare)) (enzyme)”, the binding entry is given as “no binding”.
Same read-out and setting: with “eukaryotic Elongation Factor 1 Alpha (eEF1α) isoform 1 (barley (Hordeum vulgare))” the entry was “no binding”; with “eukaryotic Elongation Factor 1 Alpha (eEF1α) isoform 3 (from UniProt A0A0U2K644)”, “no binding”; with “eukaryotic Elongation Factor 1 Gamma (eEF1γ) (barley (Hordeum vulgare))”, “no binding”.
Still for that read-out and setting: with “malate dehydrogenase (MDH) (barley (Hordeum vulgare)) (enzyme)” the entry was “no binding”; with “nucleoside diphosphate kinase (NDPK) (barley (Hordeum vulgare)) (enzyme)”, “no binding”.
Turning to “ribosomal 40S subunit protein 16 (40S 16) (barley (Hordeum vulgare))”, the binding result was “no binding”.
